Assay results taken from patent US11554182B2, “Macrocyclic complexes of alpha-emitting radionuclides and their use in targeted radiotherapy of cancer” (CORNELL UNIVERSITY, priority 2017, dated 2023).

Assay: ^225Ac radiolabeling of macropa and DOTA, concentration dependence (radio-TLC)
Settings: for ^225Ac radiolabeling after 5 min (radio-TLC): ligand 0.59 μM, L:M ratio 1800, RT; for ^225Ac complexed after 5 min (radio-TLC): ligand 59 μM, ^225Ac 26 kBq, 0.15 M NH4OAc pH 5.5-6, RT

| Structure (SMILES) | ^225Ac radiolabeling after 5 min (radio-TLC) | ^225Ac complexed after 5 min (radio-TLC) |
| --- | --- | --- |
| O=C(O)CN1CCN(CC(=O)O)CCN(CC(=O)O)CCN(CC(=O)O)CC1 [DOTA] | failed to form a complex with ^225Ac | 10% |
| O=C(O)c1cccc(CN2CCOCCOCCN(Cc3cccc(C(=O)O)n3)CCOCCOCC2)n1 [macropa, N,N′-bis[(6-carboxy-2-pyridil)methyl]-4,13-diaza-18-crown-6] | radiolabeling was still complete | complexed all the ^225Ac |
